For 12 targets, log2 fold change results are on record in the supplement of paper PMC10849652.

By UniProt entry, the sequences of proteins in these tests, tags left out. Where a name states a change or a piece, a line headed by the entry shows the natural chain unless it says otherwise.
UniProt Q8TCT8: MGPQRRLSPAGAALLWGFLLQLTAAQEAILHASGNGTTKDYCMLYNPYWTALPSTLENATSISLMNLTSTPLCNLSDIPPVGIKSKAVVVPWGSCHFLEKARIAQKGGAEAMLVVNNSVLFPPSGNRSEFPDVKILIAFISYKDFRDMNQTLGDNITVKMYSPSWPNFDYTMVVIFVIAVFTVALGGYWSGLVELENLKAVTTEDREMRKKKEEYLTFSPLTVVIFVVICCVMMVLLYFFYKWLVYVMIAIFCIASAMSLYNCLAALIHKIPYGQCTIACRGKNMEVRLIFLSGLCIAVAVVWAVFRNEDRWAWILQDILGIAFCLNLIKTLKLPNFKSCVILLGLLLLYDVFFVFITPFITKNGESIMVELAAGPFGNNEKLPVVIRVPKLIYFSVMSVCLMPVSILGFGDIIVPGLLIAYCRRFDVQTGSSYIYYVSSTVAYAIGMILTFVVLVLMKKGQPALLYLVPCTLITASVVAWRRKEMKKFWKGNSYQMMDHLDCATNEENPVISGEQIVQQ
UniProt P42226: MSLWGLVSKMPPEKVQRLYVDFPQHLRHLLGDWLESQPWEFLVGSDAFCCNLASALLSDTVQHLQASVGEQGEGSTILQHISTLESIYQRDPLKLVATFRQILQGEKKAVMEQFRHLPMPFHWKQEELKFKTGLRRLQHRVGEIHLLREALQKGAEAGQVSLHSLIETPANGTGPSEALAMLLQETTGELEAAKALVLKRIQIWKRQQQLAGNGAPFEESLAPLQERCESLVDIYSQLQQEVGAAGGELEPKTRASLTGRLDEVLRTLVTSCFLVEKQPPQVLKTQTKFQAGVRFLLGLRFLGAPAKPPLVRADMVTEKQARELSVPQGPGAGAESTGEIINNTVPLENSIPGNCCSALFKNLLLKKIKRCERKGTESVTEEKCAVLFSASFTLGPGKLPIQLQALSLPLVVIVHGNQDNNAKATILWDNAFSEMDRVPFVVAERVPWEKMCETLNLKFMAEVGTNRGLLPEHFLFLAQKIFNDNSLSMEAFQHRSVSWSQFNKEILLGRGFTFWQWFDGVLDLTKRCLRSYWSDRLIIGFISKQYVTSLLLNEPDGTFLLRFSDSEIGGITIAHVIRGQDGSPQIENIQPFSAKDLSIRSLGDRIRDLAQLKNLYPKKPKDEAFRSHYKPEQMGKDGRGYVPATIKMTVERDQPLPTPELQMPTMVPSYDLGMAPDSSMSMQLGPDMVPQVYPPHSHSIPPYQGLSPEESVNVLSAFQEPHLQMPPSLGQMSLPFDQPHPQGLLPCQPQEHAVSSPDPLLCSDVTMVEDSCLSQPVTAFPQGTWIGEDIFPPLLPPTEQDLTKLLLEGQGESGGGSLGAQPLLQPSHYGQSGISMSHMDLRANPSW
UniProt Q9BVQ7: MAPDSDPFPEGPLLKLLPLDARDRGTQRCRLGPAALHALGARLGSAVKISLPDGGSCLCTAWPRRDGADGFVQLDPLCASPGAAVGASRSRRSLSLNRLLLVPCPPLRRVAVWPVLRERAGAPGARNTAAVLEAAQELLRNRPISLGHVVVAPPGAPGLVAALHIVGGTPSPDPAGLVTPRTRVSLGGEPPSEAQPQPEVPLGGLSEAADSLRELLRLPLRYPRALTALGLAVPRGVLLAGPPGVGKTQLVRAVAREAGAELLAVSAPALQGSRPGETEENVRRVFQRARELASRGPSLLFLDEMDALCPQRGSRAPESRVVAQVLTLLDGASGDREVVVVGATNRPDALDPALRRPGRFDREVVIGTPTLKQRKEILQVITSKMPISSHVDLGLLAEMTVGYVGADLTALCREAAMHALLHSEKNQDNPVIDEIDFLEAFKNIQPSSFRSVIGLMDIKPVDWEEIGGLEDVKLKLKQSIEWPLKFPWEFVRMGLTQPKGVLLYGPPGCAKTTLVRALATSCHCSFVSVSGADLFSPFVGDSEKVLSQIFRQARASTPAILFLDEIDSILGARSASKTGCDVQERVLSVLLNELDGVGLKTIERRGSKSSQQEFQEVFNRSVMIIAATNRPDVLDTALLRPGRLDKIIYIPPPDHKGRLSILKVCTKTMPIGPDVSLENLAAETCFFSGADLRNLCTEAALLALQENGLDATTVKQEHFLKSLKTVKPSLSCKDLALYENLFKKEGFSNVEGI
UniProt P50502: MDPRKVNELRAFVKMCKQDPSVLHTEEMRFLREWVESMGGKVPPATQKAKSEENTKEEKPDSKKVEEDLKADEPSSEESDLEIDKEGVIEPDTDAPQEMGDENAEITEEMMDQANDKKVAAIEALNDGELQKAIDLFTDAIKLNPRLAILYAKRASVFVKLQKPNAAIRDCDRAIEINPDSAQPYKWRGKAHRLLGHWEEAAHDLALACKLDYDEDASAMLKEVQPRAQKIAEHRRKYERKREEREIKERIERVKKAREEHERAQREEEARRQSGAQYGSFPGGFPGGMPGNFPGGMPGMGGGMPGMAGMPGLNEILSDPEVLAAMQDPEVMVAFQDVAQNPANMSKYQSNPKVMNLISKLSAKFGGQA
UniProt Q9NUQ6: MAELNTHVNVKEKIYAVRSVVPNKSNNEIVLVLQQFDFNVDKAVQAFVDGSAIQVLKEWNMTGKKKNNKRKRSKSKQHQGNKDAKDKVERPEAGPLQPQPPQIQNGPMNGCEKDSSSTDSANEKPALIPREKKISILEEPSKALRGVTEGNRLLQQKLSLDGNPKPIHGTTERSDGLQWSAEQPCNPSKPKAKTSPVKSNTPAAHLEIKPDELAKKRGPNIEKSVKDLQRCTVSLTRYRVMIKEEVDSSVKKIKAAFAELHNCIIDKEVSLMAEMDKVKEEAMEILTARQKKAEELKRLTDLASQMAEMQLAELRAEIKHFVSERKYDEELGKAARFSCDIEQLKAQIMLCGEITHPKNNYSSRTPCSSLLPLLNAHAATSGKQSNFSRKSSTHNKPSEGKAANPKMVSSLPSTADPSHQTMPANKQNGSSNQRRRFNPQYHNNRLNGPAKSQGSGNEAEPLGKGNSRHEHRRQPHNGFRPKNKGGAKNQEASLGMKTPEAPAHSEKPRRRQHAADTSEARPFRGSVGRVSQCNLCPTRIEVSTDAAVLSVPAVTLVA
UniProt P40763, whole entry, looked up: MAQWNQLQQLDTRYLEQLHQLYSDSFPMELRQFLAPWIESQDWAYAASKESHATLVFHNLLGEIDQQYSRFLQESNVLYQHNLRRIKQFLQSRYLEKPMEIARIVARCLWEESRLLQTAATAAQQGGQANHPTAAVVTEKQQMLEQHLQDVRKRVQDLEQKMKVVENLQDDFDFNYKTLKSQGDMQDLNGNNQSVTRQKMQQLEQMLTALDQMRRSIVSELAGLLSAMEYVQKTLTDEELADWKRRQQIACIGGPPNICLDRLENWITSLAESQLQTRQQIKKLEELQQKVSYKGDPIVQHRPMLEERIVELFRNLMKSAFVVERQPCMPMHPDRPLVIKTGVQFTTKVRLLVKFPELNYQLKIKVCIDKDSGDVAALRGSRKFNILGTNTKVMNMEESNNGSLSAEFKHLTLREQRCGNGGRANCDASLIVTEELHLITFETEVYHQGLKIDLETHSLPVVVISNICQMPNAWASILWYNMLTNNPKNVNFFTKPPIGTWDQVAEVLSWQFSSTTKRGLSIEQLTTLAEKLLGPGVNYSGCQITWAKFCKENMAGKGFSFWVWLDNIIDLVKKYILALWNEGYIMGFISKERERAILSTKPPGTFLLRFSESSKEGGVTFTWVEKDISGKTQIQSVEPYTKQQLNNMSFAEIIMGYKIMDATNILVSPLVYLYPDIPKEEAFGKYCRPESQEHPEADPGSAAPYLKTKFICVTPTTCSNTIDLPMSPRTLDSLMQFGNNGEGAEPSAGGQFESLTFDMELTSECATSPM
UniProt P16150: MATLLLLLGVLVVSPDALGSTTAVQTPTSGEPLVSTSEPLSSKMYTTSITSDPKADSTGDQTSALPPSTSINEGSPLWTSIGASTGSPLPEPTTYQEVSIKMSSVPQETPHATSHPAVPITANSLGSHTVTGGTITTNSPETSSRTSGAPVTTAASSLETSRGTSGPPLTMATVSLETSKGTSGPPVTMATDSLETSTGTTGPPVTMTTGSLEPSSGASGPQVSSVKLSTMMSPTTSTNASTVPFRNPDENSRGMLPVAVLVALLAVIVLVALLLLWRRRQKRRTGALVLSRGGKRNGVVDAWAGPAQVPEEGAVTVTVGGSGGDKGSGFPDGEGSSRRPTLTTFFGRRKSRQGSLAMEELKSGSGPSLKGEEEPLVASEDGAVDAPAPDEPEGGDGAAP
UniProt Q76I76: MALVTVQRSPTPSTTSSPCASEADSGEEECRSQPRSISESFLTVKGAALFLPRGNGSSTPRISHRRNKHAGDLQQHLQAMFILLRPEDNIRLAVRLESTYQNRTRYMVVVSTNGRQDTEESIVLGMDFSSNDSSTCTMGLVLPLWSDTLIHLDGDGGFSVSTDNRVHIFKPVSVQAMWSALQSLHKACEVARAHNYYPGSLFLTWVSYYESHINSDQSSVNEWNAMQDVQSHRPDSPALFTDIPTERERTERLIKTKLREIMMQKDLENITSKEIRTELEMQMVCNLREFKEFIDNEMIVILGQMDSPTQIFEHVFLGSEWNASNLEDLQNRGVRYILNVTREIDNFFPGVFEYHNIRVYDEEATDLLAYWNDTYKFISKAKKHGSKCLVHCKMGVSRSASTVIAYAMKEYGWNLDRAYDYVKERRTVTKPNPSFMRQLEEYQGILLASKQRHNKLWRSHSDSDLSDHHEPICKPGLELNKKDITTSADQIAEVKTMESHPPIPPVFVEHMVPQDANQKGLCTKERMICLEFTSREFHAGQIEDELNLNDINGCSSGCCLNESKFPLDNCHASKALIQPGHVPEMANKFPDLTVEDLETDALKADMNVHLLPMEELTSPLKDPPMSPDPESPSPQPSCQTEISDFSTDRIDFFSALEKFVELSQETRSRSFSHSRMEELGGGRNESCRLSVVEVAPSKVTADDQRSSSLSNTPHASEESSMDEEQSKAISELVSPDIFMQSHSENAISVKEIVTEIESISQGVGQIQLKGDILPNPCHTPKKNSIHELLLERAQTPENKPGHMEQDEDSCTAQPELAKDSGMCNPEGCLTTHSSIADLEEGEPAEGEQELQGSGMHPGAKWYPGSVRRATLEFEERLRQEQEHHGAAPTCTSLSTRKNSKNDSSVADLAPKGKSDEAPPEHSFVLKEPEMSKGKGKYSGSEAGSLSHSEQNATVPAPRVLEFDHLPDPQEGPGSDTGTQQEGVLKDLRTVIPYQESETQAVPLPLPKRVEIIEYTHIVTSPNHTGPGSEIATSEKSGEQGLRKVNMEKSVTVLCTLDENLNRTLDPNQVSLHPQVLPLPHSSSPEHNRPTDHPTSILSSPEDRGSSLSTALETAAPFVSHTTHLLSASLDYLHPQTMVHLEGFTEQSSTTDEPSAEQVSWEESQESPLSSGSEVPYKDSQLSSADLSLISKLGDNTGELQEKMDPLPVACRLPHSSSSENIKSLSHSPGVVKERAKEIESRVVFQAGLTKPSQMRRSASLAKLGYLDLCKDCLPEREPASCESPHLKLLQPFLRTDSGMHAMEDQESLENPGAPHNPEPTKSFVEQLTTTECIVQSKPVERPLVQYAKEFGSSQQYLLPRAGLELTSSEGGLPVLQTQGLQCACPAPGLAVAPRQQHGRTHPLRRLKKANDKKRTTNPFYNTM
UniProt Q08945, whole entry, looked up: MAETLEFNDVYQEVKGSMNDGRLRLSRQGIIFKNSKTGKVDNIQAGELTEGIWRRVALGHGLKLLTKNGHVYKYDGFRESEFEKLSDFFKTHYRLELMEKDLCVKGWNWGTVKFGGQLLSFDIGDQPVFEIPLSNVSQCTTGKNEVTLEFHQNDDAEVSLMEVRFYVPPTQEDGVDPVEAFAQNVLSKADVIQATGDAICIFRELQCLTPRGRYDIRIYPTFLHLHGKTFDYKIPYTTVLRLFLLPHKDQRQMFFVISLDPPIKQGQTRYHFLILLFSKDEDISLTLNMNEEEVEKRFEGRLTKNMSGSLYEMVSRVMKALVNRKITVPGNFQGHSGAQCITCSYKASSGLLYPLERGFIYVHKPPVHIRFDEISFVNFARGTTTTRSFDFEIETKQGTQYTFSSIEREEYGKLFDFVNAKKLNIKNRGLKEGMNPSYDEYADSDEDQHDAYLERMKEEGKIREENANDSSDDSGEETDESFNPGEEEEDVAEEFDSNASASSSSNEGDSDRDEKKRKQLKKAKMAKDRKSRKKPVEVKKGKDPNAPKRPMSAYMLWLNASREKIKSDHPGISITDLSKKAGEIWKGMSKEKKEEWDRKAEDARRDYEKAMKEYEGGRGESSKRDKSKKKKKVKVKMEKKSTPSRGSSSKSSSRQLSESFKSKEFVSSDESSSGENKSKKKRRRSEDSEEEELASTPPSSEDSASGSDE

The list shows a part of the results.

What all share (assay): log2 fold change, soluble protein after heating vs DMSO (PISA); higher = thermal stabilisation; K562 lysate, 10 uM; active = over 0.2 and 3.5 SD of the protein, either way, in both replicates (recomputed)
Compound in test [1]: NCC(=O)Nc1ccc(-n2nc(C(F)(F)F)cc2-c2ccc3c(ccc4ccccc43)c2)cc1
The essentials:
(§1)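 Quantification was by TMTpro 16plex LC-MS/MS with equalised channel sums, applied to the supernatant after 21,000xg for 90 min. Samples were crude K562 extract at 1 mg/mL protein in PBS pH 7.4 with 1 mM MgCl2, treated with 10 μM compound for 30 min, heated for 3 min across 48°C-58°C, pooled and brought to 0.5% NP-40 at 4°C. Values are log-two fold changes in thermal stability relative to solvent controls, from duplicates.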

Compound in another test: O=C(CCCCCCC(=O)Nc1ccccc1)NO [vorinostat]
The essentials:
as §1

Compound in the next test: O=C(O)c1ccc2c(c1)nc(Nc1cccc(Cl)c1)c1ccncc12 [silmitasertib]
The essentials: as §1

Compound in test [2]: O=C1NC(=O)C(c2cnc3ccccn23)=C1c1cn2c3c(cc(F)cc13)CN(C(=O)N1CCCCC1)CC2
Summed up:
as §1

Compound in a further test: c1cn2cc(-c3ccc4cn[nH]c4c3)nc(Nc3ccc(N4CCOCC4)cc3)c2n1 [entospletinib]
Summed up:
as §1

Take SPPL2A (UniProt Q8TCT8): the log2 fold change in test [1] is inactive: 0.407; with vorinostat, inactive: -0.106; with silmitasertib, inactive: -0.069; in test [2], inactive: 0.047; with entospletinib, inactive: 0.141.
As for STAT6 (UniProt P42226), the log2 fold change was inactive: -0.042 in test [1]; inactive: -0.142 in the test with vorinostat; inactive: -0.001 with silmitasertib; inactive: -0.028 in test [2]; inactive: 0.003 with entospletinib.
For SPATA5L1 (UniProt Q9BVQ7), in that order: inactive: 0.029, active: -0.408, inactive: 0.138, inactive: 0.035 and inactive: -0.021.
Taken in the same sequence, the figures for ST13 (UniProt P50502) were inactive: 0.002, inactive: 0.108, inactive: 0.013, inactive: -0.015 and inactive: 0.014.
Taken in the same sequence, the figures for STAG2 isoform 2 (UniProt Q8N3U4) were inactive: -0.008, inactive: 0.043, inactive: -0.002, inactive: -0.032 and inactive: 0.
With SPATS2L isoform 2 (UniProt Q9NUQ6), the log2 fold change in test [1] was inactive: -0.088; with vorinostat it was inactive: 0.052; with silmitasertib it was inactive: -0.023; in test [2] it was inactive: 0.049; with entospletinib, inactive: 0.067.
On to SPDL1 (UniProt Q96EA4), for which the log2 fold change in test [1] is inactive: -0.004; in the test with vorinostat, inactive: -0.077; in the test with silmitasertib, inactive: -0.012; in test [2], inactive: 0.034; in the test with entospletinib, inactive: 0.004.
In the case of STAT3 isoform 3 (UniProt P40763), the log2 fold change in test [1] was inactive: 0.151; with vorinostat, inactive: -0.195; with silmitasertib, inactive: -0.067; in test [2], inactive: 0.025; in the test with entospletinib, inactive: -0.055.
Taken in the same sequence, the figures for STARD9 (UniProt Q9P2P6) were inactive: 0.155, inactive: -0.093, inactive: -0.004, inactive: -0.056 and inactive: -0.039.
Taken in the same sequence, the figures for SPN (UniProt P16150) were inactive: -0.004, inactive: 0.1, inactive: 0.003, inactive: -0.013 and inactive: -0.023.
SSH2 (UniProt Q76I76): the log2 fold change in test [1] is inactive: 0.04; in the test with vorinostat it was inactive: -0.228; with silmitasertib, inactive: -0.012; in test [2], inactive: 0.1; in the test with entospletinib it was inactive: -0.14.
Turning to SSRP1 (UniProt Q08945), the log2 fold change in test [1] was inactive: 0.014; with vorinostat, inactive: 0.063; with silmitasertib it was inactive: 0.014; in test [2] it was inactive: -0.046; with entospletinib, inactive: 0.002.
